Values joined by “and” are separate entries in the source; they are usually repeats but may differ in a detail not shown here. Equal entries are not always repeated. This continues a long series; more values of the same kind are listed elsewhere.
Target: T1, WGR domain of PARP2 (Homo sapiens, UniProt Q9UGN5)
T1 construct: WGR domain of PARP2 (residues 77–220) into pET-15b-TEV expression vector; 6xHis (pET-15b-TEV) (N, cleaved yes); made in house; host or cells: Escherichia coli Rosetta2 (DE3) pLysS
Assay: Tryptophan fluorescence spectroscopy of the WGR domain titrated with divalent cations (one site binding fit)
Settings: listed as Zn
Method: Fluorescence spectra of Trp residues were measured in the 300–450 nm spectral range at the 270 nm excitation wavelengths using the Cary Eclipse spectrofluorometer (Varian/Agilent, USA).
Fluorescence of WGR domain was measured at 0.5 or 5 µM in a buffer containing 10 mM HEPES (pH 8.0), 150 mM NaCl and 0.73 or 7.3 µM EDTA, respectively. Solutions were complemented with ZnCl2 (0.2–308 µM) or MgCl2 (15–5000 µM), or CaCl2 (8–5000 µM) dissolved in a buffer containing 10 mM HEPES (pH 8.0), 150 mM NaCl. Intensity of the measured spectra was corrected for the concomitant dilution of the WGR domain. Integral intensities (Ifl.) of fluorescence spectra were averaged over three independent measurements (mean ± SEM) and used to plot the corresponding Ifl. vs. ion concentration graphs. Data were fitted with the one site binding equation:2 [drawing 2]
Where C is the concentration of divalent cations, Kd is a dissociation constant of the complex, Im and Ifl0 are maximal and initial values of Ifl., respectively.

Sequences of proteins named here, by UniProt entry; tags and fusion partners are left off. Residues count along the entry.
UniProt Q9UGN5, 77-220: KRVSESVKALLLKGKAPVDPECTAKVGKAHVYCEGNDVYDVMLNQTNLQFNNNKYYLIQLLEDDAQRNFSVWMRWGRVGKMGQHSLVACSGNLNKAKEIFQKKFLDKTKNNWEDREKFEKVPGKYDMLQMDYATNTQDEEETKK

- fluorescence intensity (Fig 3d) (wavelength 364.000, 5.9 uM Zn): 55.842 and 63.694 and 78.194 and 61.247
- fluorescence intensity (Fig 3d) (wavelength 364.000, 11.6 uM Zn): 106.791 and 92.289 and 92.670 and 97.945
- fluorescence intensity (Fig 3d) (wavelength 364.000, 303 uM + 7 mM EDTA): 37.492 and 46.461 and 37.501 and 45.070
- fluorescence intensity (Fig 3d) (wavelength 365.070, 5.9 uM Zn): 54.955 and 61.338 and 74.965 and 59.497
- fluorescence intensity (Fig 3d) (wavelength 365.070, 11.6 uM Zn): 104.136 and 89.456 and 89.683 and 95.341
- fluorescence intensity (Fig 3d) (wavelength 365.070, 303 uM + 7 mM EDTA): 35.110 and 45.130 and 35.661 and 44.035
- fluorescence intensity (Fig 3d) (wavelength 366.000, 5.9 uM Zn): 53.867 and 59.723 and 72.971 and 57.784
- fluorescence intensity (Fig 3d) (wavelength 366.000, 11.6 uM Zn): 100.645 and 88.354 and 88.422 and 93.471
- fluorescence intensity (Fig 3d) (wavelength 366.000, 17.2 uM): 107.019 and 98.799 and 99.204 and 97.652
- fluorescence intensity (Fig 3d) (wavelength 366.000, 22.1 uM): 108.704 and 99.404 and 99.865 and 99.157
- fluorescence intensity (Fig 3d) (wavelength 366.000, 303 uM + 7 mM EDTA): 34.807 and 43.986 and 34.907 and 42.375
- fluorescence intensity (Fig 3d) (wavelength 367.070, 5.9 uM Zn): 51.819 and 58.334 and 71.068 and 56.021
- fluorescence intensity (Fig 3d) (wavelength 367.070, 11.6 uM Zn): 98.706 and 86.060 and 85.557 and 90.394
- fluorescence intensity (Fig 3d) (wavelength 367.070, 17.2 uM): 103.457 and 95.096 and 97.047 and 94.565
- fluorescence intensity (Fig 3d) (wavelength 367.070, 22.1 uM): 105.216 and 96.039 and 95.703 and 97.201
- fluorescence intensity (Fig 3d) (wavelength 367.070, 303 uM + 7 mM EDTA): 34.256 and 42.714 and 33.429 and 41.689
- fluorescence intensity (Fig 3d) (wavelength 367.070, 308 uM): 103.828 and 97.312 and 98.484 and 95.045
- fluorescence intensity (Fig 3d) (wavelength 368.000, 5.9 uM Zn): 50.092 and 56.980 and 71.200 and 54.944
- fluorescence intensity (Fig 3d) (wavelength 368.000, 11.6 uM Zn): 96.231 and 82.386 and 83.993 and 88.873
- fluorescence intensity (Fig 3d) (wavelength 368.000, 17.2 uM): 102.342 and 94.195 and 94.248 and 92.711
- fluorescence intensity (Fig 3d) (wavelength 368.000, 22.1 uM): 102.414 and 93.814 and 94.938 and 94.421
- fluorescence intensity (Fig 3d) (wavelength 368.000, 303 uM + 7 mM EDTA): 32.566 and 42.293 and 33.042 and 40.042
- fluorescence intensity (Fig 3d) (wavelength 368.000, 308 uM): 100.281 and 95.437 and 95.362 and 92.778
- fluorescence intensity (Fig 3d) (wavelength 369.070, 5.9 uM Zn): 48.767 and 55.886 and 67.800 and 53.758
- fluorescence intensity (Fig 3d) (wavelength 369.070, 11.6 uM Zn): 93.083 and 80.678 and 82.299 and 85.537
- fluorescence intensity (Fig 3d) (wavelength 369.070, 17.2 uM): 99.189 and 90.714 and 91.053 and 90.436
- fluorescence intensity (Fig 3d) (wavelength 369.070, 22.1 uM): 99.480 and 91.901 and 93.083 and 90.900
- fluorescence intensity (Fig 3d) (wavelength 369.070, 303 uM + 7 mM EDTA): 31.700 and 41.718 and 31.989 and 39.210
- fluorescence intensity (Fig 3d) (wavelength 369.070, 308 uM): 97.301 and 92.373 and 92.594 and 89.888
- fluorescence intensity (Fig 3d) (wavelength 370.000, 5.9 uM Zn): 46.922 and 53.760 and 66.161 and 52.466
- fluorescence intensity (Fig 3d) (wavelength 370.000, 11.6 uM Zn): 91.566 and 79.258 and 79.137 and 83.009
- fluorescence intensity (Fig 3d) (wavelength 370.000, 17.2 uM): 96.600 and 88.899 and 88.857 and 87.705
- fluorescence intensity (Fig 3d) (wavelength 370.000, 22.1 uM): 97.647 and 88.923 and 88.573 and 88.536
- fluorescence intensity (Fig 3d) (wavelength 370.000, 303 uM + 7 mM EDTA): 30.437 and 39.805 and 31.516 and 38.807
- fluorescence intensity (Fig 3d) (wavelength 370.000, 308 uM): 96.317 and 89.871 and 92.012 and 87.630
- fluorescence intensity (Fig 3d) (wavelength 371.070, 5.9 uM Zn): 45.256 and 52.757 and 65.250 and 50.197
- fluorescence intensity (Fig 3d) (wavelength 371.070, 11.6 uM Zn): 88.286 and 76.342 and 75.960 and 80.391
- fluorescence intensity (Fig 3d) (wavelength 371.070, 17.2 uM): 93.673 and 85.234 and 86.388 and 85.321
- fluorescence intensity (Fig 3d) (wavelength 371.070, 22.1 uM): 95.176 and 86.175 and 87.095 and 85.438
- fluorescence intensity (Fig 3d) (wavelength 371.070, 303 uM + 7 mM EDTA): 29.985 and 38.466 and 29.835 and 36.743
- fluorescence intensity (Fig 3d) (wavelength 371.070, 308 uM): 92.274 and 89.144 and 87.788 and 85.404
- fluorescence intensity (Fig 3d) (wavelength 372.000, 5.9 uM Zn): 44.852 and 50.838 and 62.814 and 48.698
- fluorescence intensity (Fig 3d) (wavelength 372.000, 11.6 uM Zn): 85.541 and 74.150 and 73.759 and 79.157
- fluorescence intensity (Fig 3d) (wavelength 372.000, 17.2 uM): 90.804 and 82.897 and 84.869 and 82.380
- fluorescence intensity (Fig 3d) (wavelength 372.000, 22.1 uM): 91.352 and 83.179 and 84.544 and 83.448
- fluorescence intensity (Fig 3d) (wavelength 372.000, 303 uM + 7 mM EDTA): 29.272 and 37.546 and 29.414 and 36.653
- fluorescence intensity (Fig 3d) (wavelength 372.000, 308 uM): 89.765 and 84.579 and 85.290 and 83.672
- fluorescence intensity (Fig 3d) (wavelength 373.070, 5.9 uM Zn): 43.799 and 48.947 and 60.381 and 47.376
- fluorescence intensity (Fig 3d) (wavelength 373.070, 11.6 uM Zn): 83.369 and 71.298 and 72.330 and 76.425
- fluorescence intensity (Fig 3d) (wavelength 373.070, 17.2 uM): 87.109 and 81.029 and 80.298 and 81.359
- fluorescence intensity (Fig 3d) (wavelength 373.070, 22.1 uM): 88.862 and 81.045 and 81.804 and 81.257
- fluorescence intensity (Fig 3d) (wavelength 373.070, 303 uM + 7 mM EDTA): 28.015 and 35.858 and 28.555 and 34.992
- fluorescence intensity (Fig 3d) (wavelength 373.070, 308 uM): 86.658 and 82.391 and 83.361 and 80.810
SMILES: [Cl-].[Cl-].[Zn+2] [Zn2+, ZnCl2]
- fluorescence intensity (Fig 3d) (wavelength 364.000, 17.2 uM): 113.092 and 103.179 and 104.413 and 102.691
- fluorescence intensity (Fig 3d) (wavelength 364.000, 22.1 uM): 113.488 and 104.841 and 105.132 and 105.276
- fluorescence intensity (Fig 3d) (wavelength 364.000, 308 uM): 112.175 and 106.509 and 106.375 and 103.893
- fluorescence intensity (Fig 3d) (wavelength 365.070, 17.2 uM): 110.307 and 100.251 and 101.917 and 100.027
- fluorescence intensity (Fig 3d) (wavelength 365.070, 22.1 uM): 110.796 and 102.299 and 101.756 and 101.715
- fluorescence intensity (Fig 3d) (wavelength 365.070, 308 uM): 108.197 and 103.928 and 103.206 and 100.909
- fluorescence intensity (Fig 3d) (wavelength 366.000, 308 uM): 106.012 and 100.547 and 101.530 and 98.114

— paper PMC12209172, “Poly(ADP-ribose)polymerase 2 is zinc-dependent enzyme and nucleosome reorganizer” (Cellular and Molecular Life Sciences: CMLS, 2025)
